Measurements reported in PMC12336858.

Amino acid sequences for entries named in this document (tags omitted). A change or cut given only in a name is not applied to a line headed by its entry.
UniProt Q80TL4: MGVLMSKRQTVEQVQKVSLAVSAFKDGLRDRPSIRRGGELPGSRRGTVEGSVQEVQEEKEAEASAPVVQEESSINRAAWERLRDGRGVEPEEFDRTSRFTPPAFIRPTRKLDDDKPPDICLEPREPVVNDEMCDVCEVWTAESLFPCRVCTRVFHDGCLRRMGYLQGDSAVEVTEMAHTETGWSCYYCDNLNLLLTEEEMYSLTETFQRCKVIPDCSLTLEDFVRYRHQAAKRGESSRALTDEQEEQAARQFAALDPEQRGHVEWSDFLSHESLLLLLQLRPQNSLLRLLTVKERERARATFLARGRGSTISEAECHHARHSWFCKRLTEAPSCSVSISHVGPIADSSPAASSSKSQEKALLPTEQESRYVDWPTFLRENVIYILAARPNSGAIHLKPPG
UniProt P04899: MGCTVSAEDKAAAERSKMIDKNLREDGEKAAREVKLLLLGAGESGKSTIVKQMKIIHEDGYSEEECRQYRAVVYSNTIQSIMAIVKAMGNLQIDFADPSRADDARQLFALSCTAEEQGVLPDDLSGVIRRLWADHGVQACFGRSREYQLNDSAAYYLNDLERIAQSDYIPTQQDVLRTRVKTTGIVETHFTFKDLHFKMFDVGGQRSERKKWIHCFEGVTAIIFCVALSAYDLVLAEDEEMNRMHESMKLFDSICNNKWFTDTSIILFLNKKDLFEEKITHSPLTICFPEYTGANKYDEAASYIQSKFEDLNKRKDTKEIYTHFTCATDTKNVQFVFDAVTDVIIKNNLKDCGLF

Molecular target: GST-tagged GINIP protein (UniProt Q80TL4)
Assay: pull-down; purified GST-bait (2 μg/mL) included in the cell lysis buffer (10 mM Tris-HCl pH 7.5, 150 mM NaCl, 1% Triton X-100, 5 mM DTT, no EDTA); glutathione Sepharose 4B, 10 min at 4 °C; western blot with GluGlu antibody; cells stimulated with GPCR ligands (DREADD ligand) or fluid shear stress, or expressing GTPase-deficient mutants; only the target purified

binding: binds
Substance: GluGlu-epitope inserted human Gi2 Q205L protein (from UniProt P04899)

Results are given in words; binding and its absence hold for the method and conditions named. In cells and extracts the contact can be indirect. A result given as binding can be weak or reduced; the word gives no strength.
